# Measured values taken from PMC2734569, “Functional mapping of the fission yeast DNA polymerase δ B-subunit Cdc1 by site-directed and random pentapeptide insertion mutagenesis” (BMC Molecular Biology, 2009).
# Substitutions are numbered along the chain they refer to. Results are given in words; binding and its absence hold for the method and conditions named. Tags and fused reporters may be left off the sequences shown.
# T1: Cdc1-E1 (Schizosaccharomyces pombe, UniProt P87324 1-462, Ser-GlyValProGlnSer-Asp)
# T1 construct: Cdc1, S. pombe, with a pentapeptide inserted after residue 66; source: yeast two-hybrid fusion, in S. cerevisiae CTY10-5d
# T1 sequence (looked up): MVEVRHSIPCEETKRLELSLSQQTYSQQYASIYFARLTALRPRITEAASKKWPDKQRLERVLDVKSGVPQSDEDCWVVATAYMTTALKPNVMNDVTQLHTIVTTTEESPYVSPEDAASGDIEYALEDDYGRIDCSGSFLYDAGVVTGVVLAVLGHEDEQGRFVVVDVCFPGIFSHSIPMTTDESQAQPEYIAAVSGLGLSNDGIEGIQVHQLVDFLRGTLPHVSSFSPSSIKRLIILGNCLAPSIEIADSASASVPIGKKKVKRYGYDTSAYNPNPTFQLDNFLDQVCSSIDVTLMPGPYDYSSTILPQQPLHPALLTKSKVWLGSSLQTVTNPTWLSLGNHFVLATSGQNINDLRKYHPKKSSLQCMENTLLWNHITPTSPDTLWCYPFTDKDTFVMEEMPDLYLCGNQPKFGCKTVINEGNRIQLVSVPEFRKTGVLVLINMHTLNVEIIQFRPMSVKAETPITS
# T2: Cdc1-E9 (Schizosaccharomyces pombe, UniProt P87324 1-462, Tyr-GlyGlyTyrProTyr-Gly)
# T2 construct: Cdc1, S. pombe, with a pentapeptide inserted after residue 124; source: yeast two-hybrid fusion, in S. cerevisiae CTY10-5d
# T2 sequence (looked up): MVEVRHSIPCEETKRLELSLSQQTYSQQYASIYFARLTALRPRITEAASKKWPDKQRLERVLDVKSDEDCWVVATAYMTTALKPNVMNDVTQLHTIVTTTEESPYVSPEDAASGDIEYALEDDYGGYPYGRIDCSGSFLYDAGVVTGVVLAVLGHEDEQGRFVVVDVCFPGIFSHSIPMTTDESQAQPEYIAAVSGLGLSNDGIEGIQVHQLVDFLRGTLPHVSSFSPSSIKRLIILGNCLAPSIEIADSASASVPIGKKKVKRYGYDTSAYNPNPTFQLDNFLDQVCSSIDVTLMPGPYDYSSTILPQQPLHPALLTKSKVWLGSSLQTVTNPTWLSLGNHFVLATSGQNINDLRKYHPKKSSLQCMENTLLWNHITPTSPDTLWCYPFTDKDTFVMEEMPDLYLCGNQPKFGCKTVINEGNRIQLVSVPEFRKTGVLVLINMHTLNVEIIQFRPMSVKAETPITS
# T3: Cdc1-J21 (Schizosaccharomyces pombe, UniProt P87324 1-462, Leu-GlyValProGlnLeu-Asp)
# T3 construct: Cdc1, S. pombe, with a pentapeptide inserted after residue 275; source: yeast two-hybrid fusion, in S. cerevisiae CTY10-5d
# T3 sequence (looked up): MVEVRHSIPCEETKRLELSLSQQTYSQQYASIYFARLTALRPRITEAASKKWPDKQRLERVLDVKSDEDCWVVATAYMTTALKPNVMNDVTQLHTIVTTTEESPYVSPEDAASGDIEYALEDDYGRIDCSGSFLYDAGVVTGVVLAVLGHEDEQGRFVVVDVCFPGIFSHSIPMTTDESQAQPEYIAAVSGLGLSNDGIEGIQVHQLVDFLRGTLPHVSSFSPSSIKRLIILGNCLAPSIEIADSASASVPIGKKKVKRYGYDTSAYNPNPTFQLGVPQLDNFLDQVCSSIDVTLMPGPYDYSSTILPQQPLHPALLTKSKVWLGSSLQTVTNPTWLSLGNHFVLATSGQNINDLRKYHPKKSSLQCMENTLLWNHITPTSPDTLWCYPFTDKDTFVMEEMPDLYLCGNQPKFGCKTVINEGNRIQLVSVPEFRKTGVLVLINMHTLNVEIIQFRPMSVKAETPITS
# T4: Cdc1-J3 (Schizosaccharomyces pombe, UniProt P87324 1-462, Leu-GlyValProLeuLeu-Asp)
# T4 construct: Cdc1, S. pombe, with a pentapeptide inserted after residue 62; also called E3; E8; source: yeast two-hybrid fusion, in S. cerevisiae CTY10-5d
# T4 sequence (looked up): T1 sequence (looked up) with D63G, K65P, S66L, G67L, V68D, P69V, Q70K
# B1: Cdc27 (fission yeast DNA polymerase delta C-subunit) (natural protein, Schizosaccharomyces pombe, UniProt P30261 1-372, looked up)
# chain: MEEWRNFLDIKVINESSLVTVDNLSLQLDISSEKAQEYLNMFYQGNDFLYPIYLIHGQPIDDEINLEIDEESQPISNFPVLQYILCDKSSLQEKQSRLKSGYKTVIFALSSAPLSDFDELLPAVYEIREKDVLYKKEDADKYGFIFNENSVPRVLKKAPSTHSPQLSVPSKTSTIDKTDTRSTEKTKGKDIFSNARNQKGNSSRKNKKAPLENHKEKEPLLPKEEKLSEQAKRERDDLKNIMQLEDESVSTTSVHDSEDDNLDSNNFQLEIGTEAKSAAPDEPQEIIKSVSGGKRRGKRKVKKYATTKDEEGFLVTKEEEVWESFSEDENISTGTSNVVRNKPTTVNIATKKKNTAQSKPQQKSIMSFFGKK
# notes: DNA polymerase delta C-subunit Cdc27, S. pombe; prey plasmid pGAD2F-Cdc27; also called pGAD2F-Cdc27; source: yeast two-hybrid fusion, in S. cerevisiae CTY10-5d
# Columns and labels:
# Test in all cases: two-hybrid; LexA-Cdc1 bait (pBTM116 or pBTM116BN) with Gal4 activation domain-Cdc27 prey (pGAD2F-Cdc27) in S. cerevisiae CTY10-5d; ONPG liquid culture beta-galactosidase assay, mean of triplicates, as percent of wild-type Cdc1
# [1] = molecular target: T1, Cdc1-E1
# [2] = molecular target: T2, Cdc1-E9
# [3] = molecular target: T3, Cdc1-J21
# [4] = molecular target: T4, Cdc1-J3
binder,measurement,setting,value
B1,binding,[1],no binding (tested: 1% of wild type (Table 1))
same,binding,[2],no binding (tested: <1% of wild type (Table 1))
same,binding,[3],no binding (tested: <1% of wild type (Table 1))
same,binding,[4],no binding (tested: <1% of wild type (Table 1))
